Tests used:
[1] = photostabilising, flexible vinyl chloride-vinyl acetate copolymer (Example 6); details: Test A, 0.3 part
[2] = static thermostability of polyvinyl chloride, oven at 210° C.; parameters: key: The symbol "B" indicates "burnt"; the index "+" signifies that the colour is disposed half-way between the lower unit and the upper half-unit; the index "-" signifies that the colour is between the lower half-unit and the upper unit; >2 means that it is between 2 and 2^+
[3] = static thermostability of polyvinyl chloride, oven at […] C.; parameters: key: The symbol "B" indicates "burnt"; the index "+" signifies that the colour is disposed half-way between the lower unit and the upper half-unit; the index "-" signifies that the colour is between the lower half-unit and the upper unit; >2 means that it is between 2 and 2^+
[4] = equimolecular, 1.55×1^-3 mole, 0 min
[5] = equimolecular, 1.55×1^-3 mole, 6 min
[6] = equimolecular, 1.55×1^-3 mole, 12 min
[7] = equimolecular, 1.55×1^-3 mole, 18 min
[8] = equimolecular, 1.55×1^-3 mole, 24 min
[9] = equimolecular, 1.55×1^-3 mole, 27 min
[10] = equimolecular, 1.55×1^-3 mole, 30 min
[11] = equimolecular, 1.55×1^-3 mole, 33 min
[12] = equimolecular, 1.55×1^-3 mole, 36 min

SMILES	Coloration ([1]; after 24 hours) [degrees Gardner]	Coloration ([1]; time 0) [degrees Gardner]	colour ([2]; Ex. 10, 0.3 part, 0 min) [Gardner]	colour ([2]; Ex. 10, 0.3 part, 3 min) [Gardner]	colour ([3]; 0.3 part, 0 min) [Gardner]	colour ([3]; 0.3 part, 6 min) [Gardner]	colour ([3]; 0.3 part, 12 min) [Gardner]	colour ([3]; 0.3 part, 18 min) [Gardner]	colour ([3]; 0.3 part, 24 min) [Gardner]	colour ([3]; 0.3 part, 27 min) [Gardner]	colour ([3]; 0.3 part, 30 min) [Gardner]	colour ([3]; 0.3 part, 33 min) [Gardner]	colour ([3]; 0.3 part, 36 min)	colour [3, 4] [Gardner]	colour [3, 5] [Gardner]	colour [3, 6] [Gardner]	colour [3, 7] [Gardner]	colour [3, 8] [Gardner]	colour [3, 9] [Gardner]	colour [3, 10]	also measured
CCCCCCCC/C=C\CCCCCCCCOC(=O)C1=C(C)NC(C)=C(C(=O)OCCCCCCCC/C=C\CCCCCCCC)C1 [L.28602]	1	1																			
CC1=C(C(=O)Oc2ccc(C)cc2)CC(C(=O)Oc2ccc(C)cc2)=C(C)N1 [L.28538]			1	1	1	1	3	10	13	13	14	17	17 Gardner	1	1	2	7	7	9	10 Gardner	colour ([2]; Ex. 10, 0.3 part, 6 min): 3 Gardner; colour ([2]; Ex. 10, 0.3 part, 9 min): 3 Gardner; colour ([2]; Ex. 10, 0.3 part, 12 min): 4 Gardner; colour ([2]; Ex. 10, 0.3 part, 15 min): 14 Gardner; colour ([2]; Ex. 10, 0.3 part, 18 min): B; colour ([3]; 0.3 part, 39 min): B; colour [3, 11]: 17 Gardner; colour [3, 12]: B
CCCCCCCCCCCCCCOC(=O)C1=C(C)NC(C)=C(C(=O)OCCCCCCCCCCCCCC)C1 [L.28590, 2,6-Dimethyl-3,5-dicarbotetradecyloxy-1,4-dihydropyridine]																					colour ([2]; 0.1 p.c.r., 0 min): 2 Gardner; colour ([2]; 0.1 p.c.r., 2 min): 2 Gardner; colour ([2]; 0.1 p.c.r., 4 min): 2 Gardner; colour ([2]; 0.1 p.c.r., 6 min): 2 Gardner; colour ([2]; 0.1 p.c.r., 8 min): 2 Gardner; colour ([2]; 0.1 p.c.r., 10 min): 4 Gardner; colour ([2]; 0.1 p.c.r., 12 min): 10.5 Gardner; colour ([2]; 0.2 p.c.r., 0 min): 1 Gardner; colour ([2]; 0.2 p.c.r., 2 min): 1 Gardner; colour ([2]; 0.2 p.c.r., 4 min): 1 Gardner; colour ([2]; 0.2 p.c.r., 6 min): 2 Gardner; colour ([2]; 0.2 p.c.r., 8 min): 2 Gardner; colour ([2]; 0.2 p.c.r., 10 min): 3 Gardner; colour ([2]; 0.2 p.c.r., 12 min): 7 Gardner
CCCCCCCCCCOC(=O)C1=C(C)NC(C)=C(C(=O)OCCCCCCCCCC)C1 [L.28591]	1	1																			colour ([2]; 0.1 p.c.r., 0 min): 2 Gardner; colour ([2]; 0.1 p.c.r., 2 min): 2 Gardner; colour ([2]; 0.1 p.c.r., 4 min): 2 Gardner; colour ([2]; 0.1 p.c.r., 6 min): 2 Gardner; colour ([2]; 0.1 p.c.r., 8 min): 2 Gardner; colour ([2]; 0.1 p.c.r., 10 min): 4 Gardner; colour ([2]; 0.1 p.c.r., 12 min): 10.5 Gardner; colour ([2]; 0.2 p.c.r., 0 min): 1 Gardner; colour ([2]; 0.2 p.c.r., 2 min): 1 Gardner; colour ([2]; 0.2 p.c.r., 4 min): 1 Gardner; colour ([2]; 0.2 p.c.r., 6 min): 2 Gardner; colour ([2]; 0.2 p.c.r., 8 min): 2 Gardner; colour ([2]; 0.2 p.c.r., 10 min): 3 Gardner; colour ([2]; 0.2 p.c.r., 12 min): 8 Gardner
CC1=C(C(=O)Oc2ccccc2)CC(C(=O)Oc2ccccc2)=C(C)N1 [L.28531]					1	1	3	7	10	10	10	16	B	1	1	2	5	8.5	10.5	11 Gardner	colour [3, 11]: 16 Gardner; colour [3, 12]: B
CCOC(=O)C1=C(C)NC(C)=C(C(=O)OCC)C1 [L.28501, 2,6-Dimethyl-3,5-dicarboethoxy-1,4-dihydropyridine]			1	1	1	1	2	8	11	13	13	18	B	1	1	1	5	10	11	B	colour ([2]; Ex. 10, 0.3 part, 6 min): 2 Gardner; colour ([2]; Ex. 10, 0.3 part, 9 min): 2 Gardner; colour ([2]; Ex. 10, 0.3 part, 12 min): 4 Gardner; colour ([2]; Ex. 10, 0.3 part, 15 min): 8.5 Gardner; colour ([2]; Ex. 10, 0.3 part, 18 min): B

— patent US4209439A, “Stabilization of vinyl resins” (priority 1977, dated 1980)
